For three substances, binding results are on record in PMC4743851.

Sequences of proteins named here, by UniProt entry; tags and fusion partners are left off. Residues count along the entry.
UniProt Q08849: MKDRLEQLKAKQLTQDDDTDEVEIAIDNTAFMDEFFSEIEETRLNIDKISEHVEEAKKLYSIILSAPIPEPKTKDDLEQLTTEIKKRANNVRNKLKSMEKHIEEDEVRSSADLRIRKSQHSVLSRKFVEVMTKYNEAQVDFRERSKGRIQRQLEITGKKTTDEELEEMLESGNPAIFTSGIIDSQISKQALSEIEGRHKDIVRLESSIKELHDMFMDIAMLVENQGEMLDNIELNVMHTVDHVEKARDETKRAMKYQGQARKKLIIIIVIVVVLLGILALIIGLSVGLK
UniProt P54290, residues 25-1091: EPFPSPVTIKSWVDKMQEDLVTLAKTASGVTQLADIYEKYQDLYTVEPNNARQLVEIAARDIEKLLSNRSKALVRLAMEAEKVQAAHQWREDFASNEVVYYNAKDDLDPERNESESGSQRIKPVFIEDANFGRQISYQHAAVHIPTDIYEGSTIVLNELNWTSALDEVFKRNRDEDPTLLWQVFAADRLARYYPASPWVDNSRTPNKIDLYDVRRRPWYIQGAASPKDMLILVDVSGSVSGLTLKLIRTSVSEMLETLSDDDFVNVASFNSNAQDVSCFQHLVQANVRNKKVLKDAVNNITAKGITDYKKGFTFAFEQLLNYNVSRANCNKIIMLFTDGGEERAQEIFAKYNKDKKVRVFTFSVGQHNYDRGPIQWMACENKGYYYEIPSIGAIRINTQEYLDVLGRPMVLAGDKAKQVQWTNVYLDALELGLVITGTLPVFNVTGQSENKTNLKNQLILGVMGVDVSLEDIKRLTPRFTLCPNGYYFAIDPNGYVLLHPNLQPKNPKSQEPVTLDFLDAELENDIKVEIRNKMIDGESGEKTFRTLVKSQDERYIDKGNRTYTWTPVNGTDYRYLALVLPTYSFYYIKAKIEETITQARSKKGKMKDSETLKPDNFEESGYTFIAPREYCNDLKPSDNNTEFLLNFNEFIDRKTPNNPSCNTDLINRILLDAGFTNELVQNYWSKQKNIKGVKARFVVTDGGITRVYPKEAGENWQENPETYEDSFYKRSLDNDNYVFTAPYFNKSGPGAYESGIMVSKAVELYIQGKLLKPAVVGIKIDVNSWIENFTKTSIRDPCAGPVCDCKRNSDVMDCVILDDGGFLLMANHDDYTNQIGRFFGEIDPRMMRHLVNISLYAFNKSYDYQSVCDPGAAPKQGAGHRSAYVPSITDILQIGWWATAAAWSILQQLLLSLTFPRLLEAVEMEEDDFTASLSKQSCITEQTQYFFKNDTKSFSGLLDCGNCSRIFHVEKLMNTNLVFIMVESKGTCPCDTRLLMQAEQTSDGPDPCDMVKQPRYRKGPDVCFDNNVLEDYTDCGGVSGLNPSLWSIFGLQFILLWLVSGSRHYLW

Results are given in words; binding and its absence hold for the method and conditions named. In cells and extracts the contact can be indirect. Some entries that bind do so weakly or less than the wild type.

The target of the experiment is Syntaxin-3 (endogenous, INS-1 832/13 cells) (rat (endogenous in INS-1 832/13)) (UniProt Q08849). Kind of experiment: co-IP; IP with 2 μg Syn-3 or Syn-1A antibody from 1 mg INS-1 832/13 lysate; cells at basal 0.8 mM glucose or stimulated with 16.7 mM glucose plus 10 nM GLP-1 for 30 min; blots quantified as percent recovery of total lysate input.
Turning to “Cav2.2 alpha1 pore-forming subunit (endogenous, INS-1 832/13 cells) (from UniProt Q02294 1-2336)”, the binding entry is “no binding”. Take “Cav auxiliary subunit alpha2delta-1 (endogenous, INS-1 832/13 cells) (from UniProt P54290 25-1091)”: the binding result is “binds weakly”. In the case of “Cav auxiliary subunit beta3 (endogenous, INS-1 832/13 cells) (from UniProt P54287 1-484)”, the binding result is on record as “binds weakly”.
